The source of these data is US5695963.

Chains of the proteins cited; added tags and fusions are not shown. A line that says so, or that is headed by a name, gives the form on record, which may keep a tag or linker.
EPAS1/ARNT heterodimer (Homo sapiens (EPAS1) / Mus musculus (ARNT)), one chain, as listed by the source, chain 1 of 2: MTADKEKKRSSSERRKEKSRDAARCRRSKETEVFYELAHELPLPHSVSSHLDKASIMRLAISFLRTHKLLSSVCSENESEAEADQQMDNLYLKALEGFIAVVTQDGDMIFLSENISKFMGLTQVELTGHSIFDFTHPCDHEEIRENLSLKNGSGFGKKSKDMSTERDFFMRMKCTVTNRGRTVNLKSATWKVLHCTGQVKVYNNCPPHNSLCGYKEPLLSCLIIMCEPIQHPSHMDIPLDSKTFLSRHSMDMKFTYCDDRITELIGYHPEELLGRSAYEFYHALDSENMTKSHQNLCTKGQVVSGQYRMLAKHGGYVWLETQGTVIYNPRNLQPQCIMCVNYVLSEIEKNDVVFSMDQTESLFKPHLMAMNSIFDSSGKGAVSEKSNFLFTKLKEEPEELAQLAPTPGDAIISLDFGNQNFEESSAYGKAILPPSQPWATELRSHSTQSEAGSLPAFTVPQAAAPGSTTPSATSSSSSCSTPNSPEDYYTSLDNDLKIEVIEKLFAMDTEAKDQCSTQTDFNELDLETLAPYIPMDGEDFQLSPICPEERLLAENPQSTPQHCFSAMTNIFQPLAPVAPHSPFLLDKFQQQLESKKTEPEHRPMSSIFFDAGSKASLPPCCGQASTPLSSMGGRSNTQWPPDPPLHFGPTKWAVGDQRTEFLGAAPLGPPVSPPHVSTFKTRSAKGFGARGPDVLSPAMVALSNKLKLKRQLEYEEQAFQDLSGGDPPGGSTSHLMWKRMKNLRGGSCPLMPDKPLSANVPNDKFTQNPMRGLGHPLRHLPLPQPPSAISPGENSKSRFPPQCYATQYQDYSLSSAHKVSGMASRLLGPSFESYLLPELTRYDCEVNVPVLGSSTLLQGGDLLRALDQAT
EPAS1/ARNT heterodimer (Homo sapiens (EPAS1) / Mus musculus (ARNT)), one chain, as listed by the source, chain 2 of 2: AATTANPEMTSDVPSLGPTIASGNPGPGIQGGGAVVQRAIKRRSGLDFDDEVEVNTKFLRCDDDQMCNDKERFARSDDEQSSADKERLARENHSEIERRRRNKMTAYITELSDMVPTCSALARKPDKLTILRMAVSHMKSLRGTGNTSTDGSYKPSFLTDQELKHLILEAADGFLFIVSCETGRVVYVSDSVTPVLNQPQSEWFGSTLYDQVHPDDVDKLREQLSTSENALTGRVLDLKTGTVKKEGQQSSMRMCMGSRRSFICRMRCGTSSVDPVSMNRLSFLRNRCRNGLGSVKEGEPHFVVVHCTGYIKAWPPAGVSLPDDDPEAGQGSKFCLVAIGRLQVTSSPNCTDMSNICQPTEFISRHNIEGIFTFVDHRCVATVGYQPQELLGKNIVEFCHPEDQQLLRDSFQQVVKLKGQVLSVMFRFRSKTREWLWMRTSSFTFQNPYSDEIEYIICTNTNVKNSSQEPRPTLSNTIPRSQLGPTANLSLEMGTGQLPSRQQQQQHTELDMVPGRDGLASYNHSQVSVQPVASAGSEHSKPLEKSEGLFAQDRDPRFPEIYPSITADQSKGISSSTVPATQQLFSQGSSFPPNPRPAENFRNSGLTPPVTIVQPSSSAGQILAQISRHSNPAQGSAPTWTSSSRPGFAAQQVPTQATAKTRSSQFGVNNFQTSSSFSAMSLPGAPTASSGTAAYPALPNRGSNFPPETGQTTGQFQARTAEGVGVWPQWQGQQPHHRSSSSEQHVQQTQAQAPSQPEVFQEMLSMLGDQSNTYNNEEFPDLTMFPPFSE

The data set concerns EPAS1/ARNT heterodimer (Homo sapiens (EPAS1) / Mus musculus (ARNT)). Briefly: EMSA. Particulars: complex only with both EPAS1 and ARNT; supershifted by anti-EPAS1; 4 C; protein translated in vitro. In general terms: A gel shift assay detects complexes by their altered migration in electrophoresis.

For at least one entry, the source does not settle the construct or the ends of the probe.

Take “GCCCTACGTGCTGTCTCA (double strand) [HIF-1alpha response element, erythropoietin 3' flank]”: the binding result was “binds”.
